Measured values as given in publication PMC5800702.
These are yes or no findings as the source states them, for the method shown. In cells and extracts the contact can be indirect. Some binding calls cover weakened binding; strength is not graded here. For some assays here: Sequences can lack the tags named with a protein.

By UniProt entry, the sequences of proteins in these tests, tags left out. Where a name states a change or a piece, a line headed by the entry shows the natural chain unless it says otherwise. Chains listed by the source or under a name are the forms on record and can include a tag or linker.
VVD-V5 (Q9C3Y6, form named): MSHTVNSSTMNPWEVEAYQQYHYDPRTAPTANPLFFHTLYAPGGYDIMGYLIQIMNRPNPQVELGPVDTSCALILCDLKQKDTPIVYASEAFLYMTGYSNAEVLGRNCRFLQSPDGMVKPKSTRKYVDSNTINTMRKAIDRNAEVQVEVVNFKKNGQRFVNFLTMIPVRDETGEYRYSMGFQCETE
UniProt Q01371: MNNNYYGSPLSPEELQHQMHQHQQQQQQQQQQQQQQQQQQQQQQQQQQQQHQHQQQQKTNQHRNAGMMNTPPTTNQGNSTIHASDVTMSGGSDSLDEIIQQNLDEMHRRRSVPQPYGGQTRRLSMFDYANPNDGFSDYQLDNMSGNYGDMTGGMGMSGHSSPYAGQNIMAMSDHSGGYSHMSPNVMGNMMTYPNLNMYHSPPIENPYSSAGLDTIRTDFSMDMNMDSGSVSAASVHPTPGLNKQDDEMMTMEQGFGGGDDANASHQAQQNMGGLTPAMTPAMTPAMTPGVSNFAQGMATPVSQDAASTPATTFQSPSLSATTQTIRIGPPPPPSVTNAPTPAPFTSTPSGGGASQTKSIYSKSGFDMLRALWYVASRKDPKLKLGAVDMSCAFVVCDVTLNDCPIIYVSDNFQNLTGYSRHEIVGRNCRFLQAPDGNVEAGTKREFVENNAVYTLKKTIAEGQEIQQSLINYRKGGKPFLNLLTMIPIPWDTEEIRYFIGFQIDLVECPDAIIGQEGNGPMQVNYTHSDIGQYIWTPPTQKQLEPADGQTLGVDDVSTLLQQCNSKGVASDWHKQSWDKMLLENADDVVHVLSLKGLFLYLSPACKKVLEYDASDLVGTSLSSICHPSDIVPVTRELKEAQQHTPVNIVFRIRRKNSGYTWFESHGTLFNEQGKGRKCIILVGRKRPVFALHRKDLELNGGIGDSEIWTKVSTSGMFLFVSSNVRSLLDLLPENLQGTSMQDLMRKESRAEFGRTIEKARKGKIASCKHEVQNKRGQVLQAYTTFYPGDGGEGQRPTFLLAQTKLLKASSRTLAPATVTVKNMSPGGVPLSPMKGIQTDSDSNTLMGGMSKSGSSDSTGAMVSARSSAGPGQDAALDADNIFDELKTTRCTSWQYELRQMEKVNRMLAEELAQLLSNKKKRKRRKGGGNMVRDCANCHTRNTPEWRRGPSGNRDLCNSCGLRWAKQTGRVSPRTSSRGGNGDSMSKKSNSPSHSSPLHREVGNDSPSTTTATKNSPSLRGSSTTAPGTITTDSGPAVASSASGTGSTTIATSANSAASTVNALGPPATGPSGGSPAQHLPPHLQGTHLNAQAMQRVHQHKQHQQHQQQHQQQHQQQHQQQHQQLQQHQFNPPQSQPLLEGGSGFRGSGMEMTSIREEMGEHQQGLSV

What was measured:
[1] = target: T1, V5-tagged ADV-1 (Neurospora crassa) (UniProt Q9P326); test: co-IP; DSP crosslinking, constant LL; V5-tagged ADV-1 precipitated with anti-V5 agarose beads from adv-1^V5 (2mg) and adv-1^V5, Δcsp-6 (6mg); WC-1 detected with anti-WC-1 antibody
T1 sequence: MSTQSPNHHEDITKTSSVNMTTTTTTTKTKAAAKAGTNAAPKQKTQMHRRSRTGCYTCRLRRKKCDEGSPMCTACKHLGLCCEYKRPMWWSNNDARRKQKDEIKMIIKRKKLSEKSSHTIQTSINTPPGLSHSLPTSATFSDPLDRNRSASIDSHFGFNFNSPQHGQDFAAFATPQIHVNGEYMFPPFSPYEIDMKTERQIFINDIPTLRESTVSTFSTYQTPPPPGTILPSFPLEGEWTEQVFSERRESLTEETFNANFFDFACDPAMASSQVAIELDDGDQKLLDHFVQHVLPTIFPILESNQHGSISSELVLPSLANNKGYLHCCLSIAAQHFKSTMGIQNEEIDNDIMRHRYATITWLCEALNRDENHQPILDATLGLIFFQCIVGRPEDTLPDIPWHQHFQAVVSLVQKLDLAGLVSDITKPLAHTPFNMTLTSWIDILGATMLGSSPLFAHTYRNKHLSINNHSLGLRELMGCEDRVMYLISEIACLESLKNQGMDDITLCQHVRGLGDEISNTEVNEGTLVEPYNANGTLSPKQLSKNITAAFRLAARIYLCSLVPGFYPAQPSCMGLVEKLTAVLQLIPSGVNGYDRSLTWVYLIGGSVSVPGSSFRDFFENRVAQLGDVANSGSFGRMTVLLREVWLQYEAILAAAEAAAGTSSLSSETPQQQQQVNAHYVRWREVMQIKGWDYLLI

[2] = target: VVD-V5 (Neurospora crassa) (UniProt Q9C3Y6); test: co-IP; VVD-V5 precipitated with anti-V5 agarose beads at LP60min from vvd^V5 (2mg) and vvd^V5, Δcsp-6 (6mg) extracts; blot with WC-1 antibody; ras-1^bd as negative control

binding [1]: binds
binding [2]: binds
Substance: White Collar-1 (from UniProt Q01371 1-1167)
